Assay [1] addresses FAS (fatty acid synthase) fused with a FLAG-tag. Kind of assay: immunoprecipitation, FIG. 14.
The target is the same in assay [2]. Kind of assay: co-immunoprecipitation in HEK293T cells, FIG. 33A.
Assay [3] has the same target. Kind of assay: co-immunoprecipitation in HEK293T cells, FIG. 33B.
The target in assay [4] is DH (dehydrase) domain of FAS tagged with FLAG at the N terminus. The assay is described as follows: co-immunoprecipitation in HEK293T cells, anti-FLAG and anti-HA antibodies.
Assay [5] concerns the target ER (enoylreductase) domain of FAS tagged with FLAG at the N terminus. The assay is described as above.
Assay [6] concerns the target MAT (malonyl/acetyl transferase) domain of FAS tagged with FLAG at the N terminus. The assay is described as above.
For assay [7], the target named is TE (thioesterase) domain of FAS tagged with FLAG at the N terminus. The assay is described as above.
Substrate in assay [8]: CC (central core) region of FAS tagged with FLAG at the N terminus
Described as above.

Assay [9] addresses FAS (fatty acid synthase) fused with a FLAG-tag. The assay is described as follows: co-immunoprecipitation from lysate of co-expressing HEK293T cells with an anti-FLAG antibody.
Assay [10] has the same target. Kind of assay: co-immunoprecipitation from co-expressing HEK293T cells with an anti-FLAG antibody or an anti-HA antibody.

No constants are given. Whether binding was seen depends on the method and setting. For some of these results: A result given as binding can be weak or reduced; the word gives no strength. Where a sequence is shown, tags or fusion partners need not be part of it. For some of these results: In cells and extracts the contact can be indirect.

B1: mouse AIM (apoptosis inhibitor of macrophage) fused with an HA-tag (protein, not shown: small tags and cut ends)
chain: ESPTKVQLVGGAHRCEGRVEVEHNGQWGTVCDDGWDRRDVAVVCRELNCGAVIQTPRGASYQPPASEQRVLIQGVDCNGTEDTLAQCELNYYVFDCSHEEDAGAQCENPDSDLLFIPEDVRLVDGPGHCQGRVEVLHQSQWSTVCKAGWNLQVSKVVCRQLGCGRALLTYGSCNKNTQGKGPIWMGKMSCSGQEANLRSCLLSRLENNCTHGEDTWMECEDPFELKLVGGDTPCSGRLEVLHKGSWGSVCDDNWGEKEDQVVCKQLGCGKSLHPSPKTRKIYGPGAGRIWLDDVNCSGKEQSLEFCRHRLWGYHDCTHKEDVEVICTDFDV
As for B1, the binding entry in assay [1] is given as “binds”; in assay [2], “binds”; in assay [3] it was “binds”; in assay [4] it was “binds”; in assay [5] it was “binds”; in [6], “no binding”. Moreover, the binding result in assay [7], in assay [8], in assay [9] and in assay [10] was “binds” each time.

Values taken from patent US20120202747A1.
